From PubChem BioAssay record AID1159506 (NCATS, 2015).

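Luminescence from an EWS-FLI1 target-promoter (NR0B1) reporter, set against a CMV-promoter reporter, two days after silencing single genes in TC32 Ewing sarcoma cells.
Each siRNA was applied at 20 nM.
A z-score of the log NR0B1-over-CMV signal, less the median of siRNAs with the same seed; more negative means a stronger specific loss of the NR0B1 reporter.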

The strongest results of the screen are mostly left out here.
Sequences are the guide (antisense) strand, without overhang.

{"sirna": "UUUUCUUUUCCGUAUAUUC", "target gene": "MGME1", "seed-corrected z-score": "0.5467"}
{"sirna": "AGAAUAAACGGAUAUUUCU", "target gene": "SKIDA1", "seed-corrected z-score": "0.8118"}
{"sirna": "UUGUUGGUCCUGUCAGUGC", "target gene": "TBC1D17", "seed-corrected z-score": "-0.7352"}
{"sirna": "UUUUUCGUAAUUGGAACAC", "target gene": "RABEP1", "seed-corrected z-score": "1.003"}
{"sirna": "UCAGUACAUACAUCGGCCG", "target gene": "CPA4", "seed-corrected z-score": "0.5565"}
{"sirna": "AGAUCCACAACUUUCUGCC", "target gene": "SNX24", "seed-corrected z-score": "0.5585"}
{"sirna": "AAUGAAGUCUCUCUGGUCC", "target gene": "ASTL", "seed-corrected z-score": "1.171"}
{"sirna": "UAAGCUUGCUUGGUGACUG", "target gene": "CTSE", "seed-corrected z-score": "-1.318"}
{"sirna": "ACCAUAGCAAUUAAAGUCC", "target gene": "RPAP2", "seed-corrected z-score": "-1.099"}
{"sirna": "UGCAUAAGUAGACAAUUCC", "target gene": "WWC3", "seed-corrected z-score": "0.6186"}
{"sirna": "UAACUGUCCACUGUAUUGG", "target gene": "ADGRE1", "seed-corrected z-score": "-0.6626"}
{"sirna": "ACAGUGACAGCUUCGCUCC", "target gene": "RHPN1", "seed-corrected z-score": "0.3098"}
{"sirna": "UUCUCAAACAUGUUCCCUG", "target gene": "FOXA3", "seed-corrected z-score": "-0.03042"}
{"sirna": "ACUCAUAUUUAUUAGGUGC", "target gene": "ELMO2", "seed-corrected z-score": "-1.666"}
{"sirna": "AUUCGAAUGAAAGACUCUG", "target gene": "SPATA5", "seed-corrected z-score": "-0.1502"}
{"sirna": "UCUUGUUGAAAUACGAAAG", "target gene": "CBLL1", "seed-corrected z-score": "1.262"}
{"sirna": "UUUGUGAUCAGGGCUCCCU", "target gene": "CCDC85A", "seed-corrected z-score": "0.1029"}
{"sirna": "UUAAAAGUCACCCAGAUGA", "target gene": "COTL1", "seed-corrected z-score": "0.5763"}
{"sirna": "AAACCAUAAGGACAAGUGC", "target gene": "VWDE", "seed-corrected z-score": "-1.043"}
{"sirna": "UUCCUGGUGAGUAAGAUGG", "target gene": "HTR1D", "seed-corrected z-score": "0.06367"}
{"sirna": "UCAUUCACCACCAUAAAGG", "target gene": "HSPA8", "seed-corrected z-score": "-0.8555"}
{"sirna": "UAACGGAGAACCAAUAAGC", "target gene": "ITGA1", "seed-corrected z-score": "-0.3243"}
{"sirna": "UUUUGGGUCAAAUAUAGUC", "target gene": "LOC729968", "seed-corrected z-score": "1.745"}
{"sirna": "AAUGUUUGUACCUUGAGGG", "target gene": "POLD1", "seed-corrected z-score": "-0.08128"}
{"sirna": "UCACGAAUGAUCUUGAAGG", "target gene": "VPS72", "seed-corrected z-score": "-1.804"}
{"sirna": "UGUGAGAUAGAUACGAUUC", "target gene": "PHB2", "seed-corrected z-score": "-0.2793"}